Experimental data published in patent publication US20160046678A1 (ZYNGENIA, published 2016).
Results are given in words; binding and its absence hold for the method and conditions named. Some entries that bind do so weakly or less than the wild type.

Amino acid sequences for entries named in this document (tags omitted). A change or cut given only in a name is not applied to a line headed by its entry. Chains listed by the source or under a name are the forms on record and can include a tag or linker. Residues count along the entry.
UniProt P08887, residues 20-358: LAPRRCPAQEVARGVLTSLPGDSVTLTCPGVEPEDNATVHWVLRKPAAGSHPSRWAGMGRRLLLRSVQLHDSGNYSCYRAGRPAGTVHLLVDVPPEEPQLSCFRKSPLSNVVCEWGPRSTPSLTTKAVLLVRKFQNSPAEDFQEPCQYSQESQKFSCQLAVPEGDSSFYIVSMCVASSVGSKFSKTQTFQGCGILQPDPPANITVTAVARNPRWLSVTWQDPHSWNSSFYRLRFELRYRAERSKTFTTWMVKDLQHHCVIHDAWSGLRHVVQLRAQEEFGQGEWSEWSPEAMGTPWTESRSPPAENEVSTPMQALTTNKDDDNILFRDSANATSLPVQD
VEGF (P15692, form named): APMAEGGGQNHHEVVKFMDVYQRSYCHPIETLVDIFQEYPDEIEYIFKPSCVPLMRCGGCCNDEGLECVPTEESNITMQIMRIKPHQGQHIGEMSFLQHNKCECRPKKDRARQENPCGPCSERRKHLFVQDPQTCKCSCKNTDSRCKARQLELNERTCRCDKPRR

B1: ILC229 (peptide)
peptide: SEEEWTCFPYLCSKLLH
B2: ILC230 (peptide)
peptide: SEEEWTCFPYLCGKWLQ
B3: ILC231 (peptide)
peptide: SEEEWTCFPYLCTQLLH
B4: ILC232 (peptide)
peptide: SDEDWTCFPYLCRILLE
B5: ILC233 (peptide)
peptide: SQEEWTCFPSLCSDWVQ
B6: ILC234 (peptide)
peptide: SDEEWTCFPYLCSFWAQ
B7: ILC236 (peptide)
peptide: SEEEWTCFPYLCRELLE
B8: ILC237 (peptide)
peptide: SEEEWTCFPSLCGVWAE
B9: ILC238 (peptide)
peptide: SHEEWTCFPYLCTVWAE
B10: ILC239 (peptide)
peptide: SEEEWTCFPYLCTNLVE
B11: ILC240 (peptide)
peptide: SQEEWTCFPYLCSKWVD
B12: ILC241 (peptide)
peptide: SQEEWTCFPYLCSDWLQ
B13: ILC242 (peptide)
peptide: SDEEWTCFPYLCSYWLQ
B14: ILC243 (peptide)
peptide: SDEEWTCVPSLCAKLADGQAGQAAAGGSHEEWTCFAYLCGLLAD
B15: ILC244 (peptide)
peptide: SHEEWTCFPYLCTYWLQ
B16: ILC247 (peptide)
peptide: SEEEWTCFPYLCSEWAQ
B17: ILC248 (peptide)
peptide: SEEEWTCFPYLCSQWLH
B18: ILC249 (peptide)
peptide: SDEEWTCFPYLCSEWLQ
B19: ILC250 (peptide)
peptide: SACEEAFAAYLEDSAV
B20: ILC253 (peptide)
peptide: SDEEWTCFPYLCEYWLQ
B21: ILC254 (peptide)
peptide: SQEEWTCFPYLCRILVD
B22: ILC257 (peptide)
peptide: SHEEWTCFPYLCSYLLE
B23: ILC258 (peptide)
peptide: SEEEWTCFPSLCKILLQ
B24: ILC259 (peptide)
peptide: SEEEWTCFPYLCSKWVE
B25: ILC260 (peptide)
peptide: SACEEAFAAYLEDGLM
B26: ILC262 (peptide)
peptide: SEEEWTCFPSLCSNLVQ
B27: ILC263 (peptide)
peptide: SHEEWTCFPYLCSFWAE
B28: ILC264 (peptide)
peptide: SHEEWTCFPSLCTLWSH
B29: ILC265 (peptide)
peptide: SEEEWTCFPYLCSKWLD
B30: ILC269 (peptide)
peptide: SEEEWTCFPYLCTYWVD
B31: ILC270 (peptide)
peptide: SDEEWTCFPYLCDYWLH
B32: ILC274 (peptide)
peptide: SHEEWTCFPYLCSFWLE
B33: ILC275 (peptide)
peptide: SDEEWTCFPYLCTDWLH
B34: ILC276 (peptide)
peptide: SHEEWTCFPYLCNLLSH
B35: ILC277 (peptide)
peptide: SQDEWTCFPSLCSDLSE
B36: ILC280 (peptide)
peptide: SEEEWTCFPYLCSFWLQ
B37: ILC281 (peptide)
peptide: SEEEWTCFPYLCSLWLE
B38: ILC282 (peptide)
peptide: SHEEWTCFPYLCSYWLE
B39: ILC283 (peptide)
peptide: FMVHCTWYDVTIDCVGPT
B40: ILC284 (peptide)
peptide: SDISCSYIDGWYQCLLHL
B41: ILC285 (peptide)
peptide: WGCLCQQQGHFMECEITW
B42: ILC286 (peptide)
peptide: ESLLCIQHDVWVDCYIVE
B43: ILC287 (peptide)
peptide: NSSFCYIHAIEWVCESSS
B44: ILC288 (peptide)
peptide: DLLYCEWEMVVRECHGTIGQ
B45: ILC292 (peptide)
peptide: QIVECWTEMDWHHCVLFF
B46: VGF1 (peptide)
peptide: WCWVPGPIQCY
B47: VGF2 (peptide)
peptide: CMWEMPWWFCQ
B48: VGF3 (peptide)
peptide: TCTWVMPWWFCE
B49: VGF4 (peptide)
peptide: ICLWQMPWWFCE
B50: VGF6 (peptide)
peptide: GDWEWVWDWCF

target: IL6R (UniProt P08887); assay: peptide selection, Example 48

Binder	binding
B1	binds
B2	binds
B3	binds
B4	binds
B5	binds
B6	binds
B7	binds
B8	binds
B9	binds
B10	binds
B11	binds
B12	binds
B13	binds
B14	binds
B15	binds
B16	binds
B17	binds
B18	binds
B19	binds
B20	binds
B21	binds
B22	binds
B23	binds

Binder	binding
B24	binds
B25	binds
B26	binds
B27	binds
B28	binds
B29	binds
B30	binds
B31	binds
B32	binds
B33	binds
B34	binds
B35	binds
B36	binds
B37	binds
B38	binds
B39	binds
B40	binds
B41	binds
B42	binds
B43	binds
B44	binds
B45	binds

target: VEGF (UniProt P15692); assay: MRD identification, Example 48

Binder	binding
B46	binds
B47	binds
B48	binds
B49	binds
B50	binds
